Test results published in PubChem BioAssay AID1508600 (Functional Genomics Laboratory (NCATS/FGL), 2020).
Out of some 53,000 sequences screened, about 3,700 (7%) were called active.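 Rule for the calls: active = gene knockdowns whose robust z-score for IL-1 alpha signal is at least 2 or at most -2, so actives lie on both sides; inactive = the rest.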 The list shows a part of the results.

experiment: Components of the Cytosolic LPS Sensing Pathway: Gene Identification via Genome-wide siRNA Screen; details: RAW264.7 macrophages, IL-1a HTRF, actives lie on both sides, screened at 100 nM (by protocol), cells primed 5 h with Pam3CSK4 first;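 note: robust z of the log signal after scaling to non-targeting control siRNA wells of the plate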
Method in brief: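 Knockdown: 100 nM siRNA, 48h, RAW264.7. Stimulation: Pam3CSK4 5 h, then LipidA via TransIT-TKO 24 h. Output: supernatant IL-1a HTRF, negative-control-normalized, log robust z-score; viability by CellTiter-Glo.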

Row | Sequence | z-score
1 | GGACUCAAAACCAUUUACATT against Dram1 | inactive: -1.13
2 | CCUGAACCGUCGUCAACUUTT against Atp5d | inactive: -0.695
3 | GGAAGGAGAAUAUUUGACATT against Sh3tc2 | inactive: -0.931
4 | GCCUACGAAGUCUUGUCAGTT against Dnajb8 | inactive: -0.432
5 | GGGUUUUUCAUAAACAAAGTT against Pdcd1lg2 | inactive: -1.46
6 | GGAAAUGCUUCUAAAGUCATT against Actg2 | inactive: 0.748
7 | UCCAUACUACUCAUCAAAUTT against Olfr68 | active: 3.78
8 | GGCUUUUUCAACAUGUGGATT against Olfr853 | inactive: -0.0891
9 | GGGAUUCUCAGGUCACUGUTT against Nectin4 | inactive: 0.14
10 | GCCUAGAACUGAUGGAGCUTT against Trp73 | inactive: 1.21
11 | GGAUCCUUACUACAGAUUUTT against Manba | inactive: 0.839
12 | AGUAACCUGAGACAACACCTT against Zbtb25 | inactive: 0.231
13 | CCCGAUUGAUAUUCCAAACTT against Piwil1 | inactive: 0.822
14 | GGAGUUUUUACAGUGCUUUTT against Brinp3 | inactive: 0.565
15 | GGUGAUUGUUAGAGUUAAATT against Syt4 | inactive: 0.934
16 | GGUCAAGAUGCAGAAAGGUTT against Odf2 | inactive: -1.4
17 | GGAACAACUGUAAGUCCACTT against Kng2 | inactive: -0.192
18 | GGAAAUCACAAACUUGUGGTT against Tspan12 | inactive: 1.25
19 | GCUUUGUCUCAAAGAAAAATT against Olfr145 | inactive: 1.24
20 | CCUUAAAACUGAUUACACCTT against Bach2 | inactive: 0.481
21 | CCAUUGUUUGGACUGUUCCTT against Olfr1066 | inactive: -0.169
22 | GAUUCCAAGACAUUAAACATT against Fxn | inactive: 0.485
23 | GCAUCAAACAAUUUGUCGUTT against Ptgis | inactive: 0.0275

Row | Sequence | z-score
24 | CCUCACCAGGUAAAUUUUUTT against Ro60 | inactive: -1.25
25 | GGACAAACAGGGAGAAAGATT against Mogat2 | inactive: -0.091
26 | GACUUCAUGGUCAAACUUATT against Rpl4 | inactive: 0.621
27 | GCAUGCUGACCACAAUAGATT against Arhgef11 | inactive: 0.768
28 | GGAGAAGGAACUGUGUGAGTT against Nfkbil1 | active: -2.26
29 | GCAGCCUACUAACCGGAUUTT against Cited4 | inactive: 0.119
30 | GACAUUGUCUGAUUUUGGATT against Vmn1r81 | inactive: -1.22
31 | GGAGAUCUUCAAUAUGUUATT against Supt6 | active: -2.25
32 | GGAAAACAAGUGCAGCAUGTT against Pgap1 | inactive: -0.0346
33 | GGGAAAUGAGUUUCUACCGTT against Ebna1bp2 | inactive: -0.891
34 | GGGAUUUUUUAUUAAGCCCTT against Foxg1 | inactive: -0.258
35 | CCACCACAAGUACCGUAAATT against Aurkaip1 | inactive: -0.818
36 | GAGUGUGAAGAUAGACUUCTT against Myl4 | inactive: 0.0215
37 | GCAGCUAUUGAGCAUGGUGTT against Atp6v1g3 | active: -2.16
38 | GGUUGUACUGAGUAGCUGGTT against Slc7a4 | inactive: 0.997
39 | CCCUGAUCCUAGUGGAAAUTT against Kng1 | inactive: 0.474
40 | GCAGUAGAGGAGCAAUAUUTT against Mxra7 | inactive: -1.44
41 | GCUUCAUGCACGGUUCUAUTT against Cib2 | inactive: 1.65
42 | GGACUGUUUCCUAUCCACUTT against Vmn2r1 | inactive: -1.06
43 | GGUUACCAUGAAGGCUGGATT against Bpifb6 | inactive: -0.988
44 | GGAGAGAAGAAAAAAAGAATT against Prrc2b | inactive: -1.65
45 | GCCUGACUUCAGACUAUUUTT against Stxbp5l | inactive: 1
46 | GCUGUGUCGUUCAAAAGAATT against Cd80 | inactive: -0.315

Row | Sequence | z-score
47 | GGAGAAAAGCUCUGUUCACTT against Olfr1195 | inactive: 0.906
48 | GGACAUUCAACCUGAAGUUTT against Hs6st3 | inactive: 0.472
49 | GGUCAAAAGACUGUACAUATT against Timm8a2 | active: 2.07
50 | GCUCUUGACACUAGAGAUUTT against Ap1s3 | inactive: 0.0373
51 | GGUUGUUAAGCUGAAGCAATT against Prkacb | inactive: -0.219
52 | GGCUAAUUCUGGCUUACGATT against Wfdc5 | inactive: 0.342
53 | ACAUACCAGUCUCUGUACCTT against Pigu | inactive: -1.56
54 | GGAAAAGGUGGCCUACACATT against Rhox11 | inactive: -1.7
55 | GGCAUAACAGAGAUGAUGATT against Ttc30a1 | inactive: -0.0751
56 | GGUUCUUGGAUAAAUCAAGTT against Mrpl40 | active: 2.41
57 | CCUAUCAUUGGACCUUAAATT against Dscaml1 | inactive: 0.428
58 | GGGAGUGCCCAUCAUUGUUTT against Rhod | inactive: -0.696
59 | GGAGAAAAACUUCUGGAACTT against Wdr41 | inactive: -0.522
60 | GGUUAGCAACAUUAAGAAGTT against Cops7b | inactive: -1.6
61 | GGCGAAUGUGUGAAGAGGCTT against H2-Q5 | inactive: -1.97
62 | GGGUCAGAAUGUUACCAAATT against Cdc27 | inactive: 0.432
63 | GAUGGACAGGUUCAUGAUUTT against Rtl6 | inactive: -1.21
64 | GCGAAAGAAGGUGAUUAUGTT against Cyp26a1 | inactive: -0.487
65 | GCAUCUGUAAUGAACUGGUTT against Mrpl10 | inactive: 0.774
66 | GUUUGAAGGAUCGGAGAAGTT against Shf | inactive: -0.367
67 | GGUGGUGACCUUGGAUGUUTT against Gstp3 | inactive: -0.00982
68 | GGGCUGGCUACGAUAAGCUTT against Tes | inactive: 1.53

Some of the entries above, reformatted:
Row	Sequence	z-score
19	GCUUUGUCUCAAAGAAAAATT against Olfr145	inactive: 1.24
20	CCUUAAAACUGAUUACACCTT against Bach2	inactive: 0.481
